PubChem BioAssay AID485314 (National Center for Advancing Translational Sciences (NCATS), 2010)
Hit rate of the full screen: of about 340,000 compounds, about 4,500 (1.3%) were called active. Inconclusive results, whose numbers are uncertain, are shown with a selection of clear calls. The call rests on the fitted dose curve; in most records, active means well fitted inhibition curve with a large enough effect; inconclusive means small, poorly fitted or top-dose-only effect, or another doubt; inactive means no such curve, though single readings can be large or run the other way. Potencies beside an inconclusive call are fits to weak or partial responses and may not hold up.

target: DNA polymerase beta (Homo sapiens) (UniProt P06746); assay: qHTS Assay for Inhibitors of DNA Polymerase Beta; conditions: Pol beta primer extension/strand displacement, fluorescence kinetic; activity change, negative = inhibition: at 114 µM (top of the series)
Outline: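 Enzyme-only controls used 10 nM Pol beta; buffer lacking enzyme served as negative control. Compound preincubated 15 min, then 50 nM substrate added; 0 and 10 min reads at room temperature.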
On the % scale 0 is the no-effect control and ±100 the full control effect; potency means the concentration at half of the fitted maximal effect.

Structure (SMILES)	Potency	activity change, negative = inhibition
COCCn1c(SCC(=O)c2c(N)n(C)c(=O)n(C)c2=O)nc2ccccc21	inactive	–
CCOc1c(O)ccc(C2NC(=O)NC(C)=C2C(=O)OC)c1[N+](=O)[O-] (centres undefined)	inconclusive: 56.2 µM [inhibitor, partial curve]	–
N#Cc1ccc(NC(=O)CCc2nc3ccccc3s2)cc1	inconclusive: 17.8 µM [inhibitor, single point]	–
CSc1cccc(NC(=O)c2cc(S(=O)(=O)N3CCc4ccccc43)cn2C)c1	inconclusive: 89.1 µM [inhibitor, single point]	–
COc1cccc2c(N/N=C/c3ccccc3)cc(C)nc12	inactive	–
Cc1cccc(-c2nnc(SCC(=O)c3ccc(O)cc3O)n2C)c1	inconclusive: 15.8 µM [inhibitor, single point]	–
CC(=O)N/N=C\c1ccccc1OC/C=C/c1ccccc1	inconclusive: 39.8 µM [inhibitor, single point]	–
Cc1nnc(N2CCN(c3ccccc3F)CC2)c2c1nnn2Cc1ccccc1Cl	inactive	–
CC(C)C[C@H](NC(=O)c1nc[nH]c1C(=O)NCC(=O)OCc1ccccc1)C(=O)OC(C)(C)C	inconclusive: 39.8 µM [inhibitor, single point]	–
Cc1ccc(CN2CC(C(=O)Nc3cccc(S(=O)(=O)N4CCCCC4)c3)CC2=O)cc1 (centres undefined)	inconclusive: 15.8 µM [inhibitor, full curve]	–
CC(NC(=O)C(=O)Nc1c2c(nn1-c1ccccc1)CSC2)c1ccccc1 (centres undefined)	inconclusive: 35.5 µM [inhibitor, full curve, poor fit]	–
O=C(COc1ccccc1)NNc1c2ccccc2nc2ccccc12	inconclusive: 3.55 µM [inhibitor, full curve]	–
CCn1c2ccccc2c2nnc(SCC(N)=O)nc21	inconclusive: 89.1 µM [inhibitor, single point]	–
O=P(O)(O)c1ccccc1OCCCCCOc1ccccc1P(=O)(O)O	inconclusive: 35.5 µM [inhibitor, full curve]	–
COc1ccc(/C=C/C(=O)O)cc1S(=O)(=O)NCc1cccnc1	inconclusive: 50.1 µM [inhibitor, single point]	–
O=C(NCc1ccc2c(c1)OCO2)c1ccc(-c2ccc(Cl)cc2)o1	inconclusive: 1.41 µM [inhibitor, full curve]	–
CCOC(=O)c1ccc(NC(=O)COc2ccccc2CNC2CCCC2)cc1	inconclusive: 44.7 µM [inhibitor, partial curve, poor fit]	–
CCCN(C(=O)Cn1nc(Cc2cccnc2)c2ccccc2c1=O)c1ccc(C(C)C)cc1	inactive	–
COc1ccccc1C(=O)N/C(=C/c1ccco1)C(=O)Nc1ccc(C(=O)O)cc1	active: 50.1 µM	–
COc1ccc(NC(=O)CS(=O)CC(=O)NCc2cccc(C(F)(F)F)c2)cc1 (centres undefined)	inconclusive: 20 µM [inhibitor, full curve]	–
Cc1oc2c(c(C)cc3oc(=O)c(CC(=O)NCCc4ccc(Cl)cc4)c(C)c32)c1C	inactive	–
CC(=O)N(C1=C(O)c2ccccc2C(=O)C1=O)C1CCCCC1	inactive	–

Structure (SMILES)	Potency	activity change, negative = inhibition
COc1ccc(NC(=O)C2CCCN(c3nc(C)cc(C)n3)C2)cc1 (centres undefined)	inconclusive: 0.447 µM [inhibitor, partial curve, poor fit]	–
COc1cc(/C=C2\SC(N)=NC2=O)ccc1OCC(=O)Nc1ccc(C)cc1	active: 3.55 µM	–
Cc1ccc(NC(=O)c2ccccc2N(C)S(C)(=O)=O)cc1C	inconclusive: 89.1 µM [inhibitor, single point]	–
Cc1ccccc1OCC(=O)NNC(=O)c1ccc(-c2ccccc2)cc1	inconclusive: 20 µM [inhibitor, partial curve, poor fit]	–
Cc1ccsc1C(=O)Nc1ccc(OCc2ccccc2)cc1	inactive	–
O=C(c1ccco1)N(Cc1ccc2c(c1)OCO2)Cc1cc2cc3c(cc2[nH]c1=O)OCO3	–	inconclusive: -41.9% [inhibitor]
Cc1c(Cl)cccc1N=Cc1ccc([N+](=O)[O-])s1	inconclusive: 70.8 µM [inhibitor, single point]	–
CC(=O)Nc1cccc(C(=O)/C=C/c2ccc(N(C)C)cc2)c1	active: 50.1 µM	–
CC1(C)C(=O)Nc2ccccc2N1C(=O)CSc1nnc2ccccn12	active: 31.6 µM	–
CCc1nn2c(=O)cc(COc3ccc(/C=C4\C(=N)N5N=C(C)SC5=NC4=O)cc3)nc2s1	active: 35.5 µM	–
CCOC(=O)c1sc(NC(=O)CSc2nnc(Cc3ccccc3)o2)c(C#N)c1C	inconclusive: 7.94 µM [inhibitor, full curve]	–
CC1Cc2cc(/C(O)=C3/C(=O)C(=O)N(CC4CCCO4)C3c3ccco3)ccc2O1 (centres undefined)	active: 22.4 µM	–
O=C(CSc1ccc(Cl)cc1)Nc1ccc(N2CCN(C(=O)c3ccc(Cl)cc3)CC2)cc1	inconclusive: 20 µM [inhibitor, full curve]	–
COc1ccc(-c2ccc(=O)n(CC(=O)Nc3ccc4c(c3)OCCO4)n2)cc1	inactive	–
CC1CC(=O)N(CC(=O)Nc2ccc(F)cc2)c2ccccc2S1(=O)=O (centres undefined)	inconclusive: 0.141 µM [inhibitor, full curve, poor fit]	–
CC(CNC(=O)c1cc2ccccn2n1)c1ccccc1 (centres undefined)	inactive	–
COCCNC(=O)c1cccc(C)c1[N+](=O)[O-]	inconclusive: 39.8 µM [inhibitor, single point]	–
NS(=O)(=O)c1ccc(CCNC(=O)CCn2c(=O)c3cccn3c3cccnc32)cc1	inconclusive: 100 µM [inhibitor, single point]	–
COc1ccc(C(=O)Oc2ccc(F)cc2C(=O)/C=C/c2ccc(OC)c(OC)c2)cc1	inconclusive: 70.8 µM [inhibitor, single point]	–
COc1cccc(CNC(=O)c2ccc3c(c2)sc2nc(-c4ccccc4)cn23)c1OC	inconclusive: 17.8 µM [inhibitor, full curve, poor fit]	–
Cc1ccn2c(-c3csc(NCc4ccccc4)n3)c(C)nc2c1	inactive	–
O=c1[nH]c2ccc(S(=O)(=O)Nc3cc(Cl)ccc3O)cc2o1	inconclusive: 63.1 µM [inhibitor, single point]	–

Complete entries as entered above. Values in the order: Potency | activity change, negative = inhibition
Cc1ccsc1C(=O)Nc1ccc(OCc2ccccc2)cc1 in the list: inactive | –
Cc1ccccc1OCC(=O)NNC(=O)c1ccc(-c2ccccc2)cc1 in the list: inconclusive: 20 µM [inhibitor, partial curve, poor fit] | –
COc1cc(/C=C2\SC(N)=NC2=O)ccc1OCC(=O)Nc1ccc(C)cc1 in the list: active: 3.55 µM | –
